Patent publication US11230581B2, “Peptides and combination of peptides for use in immunotherapy against ovarian cancer and other cancers” (Immatics Biotechnologies GmbH, priority 2015, dated 2022)

Assays:
ovarian cancer samples = assay: Relative LC-MS quantitation of HLA-presented peptides: presentation and over-presentation on ovarian cancer vs a panel of normal tissues (presentation score); set-up: species or system human; key: +++: very highly over-presented on tumors compared to a panel of normal tissues; ++: highly over-presented on tumors compared to a panel of normal tissues; +: over-presented on tumors compared to a panel of normal tissues; details: over-presentation on tumors compared to a panel of normal tissues
additional tumor types = assay: LC-MS detection and over-presentation of the peptides on additional tumor types, cell lines and primary cultures; set-up: species or system human; details: for Other relevant organs/ cancerous diseases: Table 4A: additional tumor types on which the peptide was found, over-presented on more than 5% of measured tumor samples, or presented on more than 5% with ratio of geometric means tumor vs normal tissues larger than 3; for Additional organs/cancerous diseases: additional tumor types with over-presentation on more than 5% of the measured tumor samples, or presentation on more than 5% with ratio of geometric means tumor vs normal tissues larger than 3

Substance	Peptide Presentation (presentation score) (ovarian cancer samples)	Other relevant organs/ cancerous diseases (additional tumor types)	Additional organs/cancerous diseases (additional tumor types)
423 (GLDGPPPTV; listed as Homo sapiens) [compound 423]	+++	HCC, PC, BrCa, Urinary bladder Cancer, Uterine Cancer, Gallbladder Cancer, Bile Duct Cancer	NHL
424 (TLLDALYEI; listed as Homo sapiens) [compound 424]	+	RCC, Esophageal Cancer, Endometrium	Melanoma, Gallbladder Cancer and Bile Duct Cancer, AML, HNSCC
425 (FLYEKSSQV; listed as Homo sapiens) [compound 425]	+	Brain Cancer, Endometrium	SCLC
428 (KLGHTDILVGV; listed as Homo sapiens) [compound 428]	++	NSCLC, SCLC, CRC, HCC, Leukemia	CLL, Uterine Cancer, HNSCC
429 (GLVNDLARV; listed as Homo sapiens) [compound 429]	+	NSCLC, HCC	SCLC, BRCA, Melanoma, Gallbladder Cancer and Bile Duct Cancer, NHL
430 (HLYSSIEHLTT; listed as Homo sapiens) [compound 430]	+	NSCLC, CRC, HCC, MCC, Esophageal Cancer	SCLC, BRCA, Urinary Bladder Cancer, NHL
431 (SLVNVVPKL; listed as Homo sapiens) [compound 431]	+	NSCLC, SCLC, RCC, Brain Cancer, Melanoma, Esophageal Cancer	CLL, BRCA, Urinary Bladder Cancer, Gallbladder Cancer and Bile Duct Cancer, AML, NHL
433 (AMLNEPWAV; listed as Homo sapiens) [compound 433]	+++	SCLC	BRCA, Melanoma, Urinary Bladder Cancer, HNSCC
434 (KVSNSGITRV; listed as Homo sapiens) [compound 434]	+++	NSCLC	Esophageal Cancer, HNSCC
435 (WLMPVIPAL; listed as Homo sapiens) [compound 435]	+++	SCLC	Melanoma, Gallbladder Cancer and Bile Duct Cancer, AML
436 (HLAEVSAEV; listed as Homo sapiens) [compound 436]	+++		NSCLC, SCLC, CLL, BRCA, Melanoma, Urinary Bladder Cancer, Gallbladder Cancer and Bile Duct Cancer, AML, NHL, HNSCC
437 (SMAPGLVIQAV; listed as Homo sapiens) [compound 437]	+++	SCLC, Prostate	
438 (KLLPLAGLYL; listed as Homo sapiens) [compound 438]	+++		CLL, BRCA, Melanoma, Uterine Cancer, Gallbladder Cancer and Bile Duct Cancer, AML, HNSCC
439 (YLLQEIYGI; listed as Homo sapiens) [compound 439]	+++	SCLC, BrCa	AML
440 (ALADGVTMQV; listed as Homo sapiens) [compound 440]	+++	Gallbladder, Bile duct	SCLC, BRCA, Melanoma, Uterine Cancer
441 (ALLENPKMEL; listed as Homo sapiens) [compound 441]	+++	NSCLC, SCLC, CRC, HCC, MCC, Esophageal Cancer	Urinary Bladder Cancer
444 (GLLRDEALAEV; listed as Homo sapiens) [compound 444]	+++	NSCLC, SCLC, CRC, Melanoma, Esophageal Cancer	CLL, BRCA, Urinary Bladder Cancer, Uterine Cancer, AML, NHL, HNSCC

Substance	Peptide Presentation (presentation score) (ovarian cancer samples)	Other relevant organs/ cancerous diseases (additional tumor types)	Additional organs/cancerous diseases (additional tumor types)
447 (QLVPALAKV; listed as Homo sapiens) [compound 447]	+++	NSCLC, SCLC, HCC, PrC, Esophageal Cancer, Urinary bladder Cancer	BRCA, Melanoma, HNSCC
448 (NLLETKLQL; listed as Homo sapiens) [compound 448]	++	Colon, Rectum, Leukemia	CLL, Melanoma, NHL, HNSCC
450 (FMIDASVHPTL; listed as Homo sapiens) [compound 450]	+++	NSCLC, SCLC, RCC, Brain Cancer, CRC, HCC, Leukemia, Melanoma, Esophageal Cancer	CLL, Urinary Bladder Cancer, HNSCC
451 (LLLLDTVTMQV; listed as Homo sapiens) [compound 451]	+++	SCLC, HCC	Melanoma, HNSCC
454 (KLPPPPPQA; listed as Homo sapiens) [compound 454]	+++	NSCLC, SCLC	BRCA, AML, HNSCC
455 (SLLKEPQKVQL; listed as Homo sapiens) [compound 455]	+	RCC	CLL, Melanoma, HNSCC
457 (SLLPGNLVEKV; listed as Homo sapiens) [compound 457]	+++	NSCLC, HCC, Leukemia, Melanoma	
458 (SLIDKLYNI; listed as Homo sapiens) [compound 458]	+++		SCLC, Brain Cancer, Melanoma, Urinary Bladder Cancer, AML, HNSCC
459 (ALITEVVRL; listed as Homo sapiens) [compound 459]	+++	NSCLC, CRC, PC, Leukemia, BrCa, Esophageal Cancer	SCLC, CLL, AML, NHL
461 (VMFRTPLASV; listed as Homo sapiens) [compound 461]	+++	SCLC, Melanoma, Esophageal Cancer	BRCA, Urinary Bladder Cancer, Uterine Cancer, NHL
463 (SLVESHLSDQLTL; listed as Homo sapiens) [compound 463]	+++	NSCLC, SCLC, HCC, Melanoma	CLL, BRCA, Urinary Bladder Cancer, Uterine Cancer, Gallbladder Cancer and Bile Duct Cancer, NHL, HNSCC
464 (ALNDCIYSV; listed as Homo sapiens) [compound 464]	+++	Brain Cancer, HCC, PC	HNSCC
466 (VLIANLEKL; listed as Homo sapiens) [compound 466]	+++	BrCa, Esophageal Cancer	Urinary Bladder Cancer, NHL
468 (YLRSVGDGETV; listed as Homo sapiens) [compound 468]	+	Leukemia, Melanoma	Uterine Cancer
470 (MLQDSIHVV; listed as Homo sapiens) [compound 470]	+++		BRCA
472 (KLLEVSDDPQV; listed as Homo sapiens) [compound 472]	++	HCC, MCC, Melanoma, Esophageal Cancer	HNSCC
473 (AMATESILHFA; listed as Homo sapiens) [compound 473]	+++	SCLC, Brain Cancer, CRC, HCC, MCC, Gallbladder Cancer, Bile Duct Cancer	AML
